This is an account of results in publication PMC9776959.

Amino acid sequences for entries named in this document (tags omitted).
UniProt Q14676: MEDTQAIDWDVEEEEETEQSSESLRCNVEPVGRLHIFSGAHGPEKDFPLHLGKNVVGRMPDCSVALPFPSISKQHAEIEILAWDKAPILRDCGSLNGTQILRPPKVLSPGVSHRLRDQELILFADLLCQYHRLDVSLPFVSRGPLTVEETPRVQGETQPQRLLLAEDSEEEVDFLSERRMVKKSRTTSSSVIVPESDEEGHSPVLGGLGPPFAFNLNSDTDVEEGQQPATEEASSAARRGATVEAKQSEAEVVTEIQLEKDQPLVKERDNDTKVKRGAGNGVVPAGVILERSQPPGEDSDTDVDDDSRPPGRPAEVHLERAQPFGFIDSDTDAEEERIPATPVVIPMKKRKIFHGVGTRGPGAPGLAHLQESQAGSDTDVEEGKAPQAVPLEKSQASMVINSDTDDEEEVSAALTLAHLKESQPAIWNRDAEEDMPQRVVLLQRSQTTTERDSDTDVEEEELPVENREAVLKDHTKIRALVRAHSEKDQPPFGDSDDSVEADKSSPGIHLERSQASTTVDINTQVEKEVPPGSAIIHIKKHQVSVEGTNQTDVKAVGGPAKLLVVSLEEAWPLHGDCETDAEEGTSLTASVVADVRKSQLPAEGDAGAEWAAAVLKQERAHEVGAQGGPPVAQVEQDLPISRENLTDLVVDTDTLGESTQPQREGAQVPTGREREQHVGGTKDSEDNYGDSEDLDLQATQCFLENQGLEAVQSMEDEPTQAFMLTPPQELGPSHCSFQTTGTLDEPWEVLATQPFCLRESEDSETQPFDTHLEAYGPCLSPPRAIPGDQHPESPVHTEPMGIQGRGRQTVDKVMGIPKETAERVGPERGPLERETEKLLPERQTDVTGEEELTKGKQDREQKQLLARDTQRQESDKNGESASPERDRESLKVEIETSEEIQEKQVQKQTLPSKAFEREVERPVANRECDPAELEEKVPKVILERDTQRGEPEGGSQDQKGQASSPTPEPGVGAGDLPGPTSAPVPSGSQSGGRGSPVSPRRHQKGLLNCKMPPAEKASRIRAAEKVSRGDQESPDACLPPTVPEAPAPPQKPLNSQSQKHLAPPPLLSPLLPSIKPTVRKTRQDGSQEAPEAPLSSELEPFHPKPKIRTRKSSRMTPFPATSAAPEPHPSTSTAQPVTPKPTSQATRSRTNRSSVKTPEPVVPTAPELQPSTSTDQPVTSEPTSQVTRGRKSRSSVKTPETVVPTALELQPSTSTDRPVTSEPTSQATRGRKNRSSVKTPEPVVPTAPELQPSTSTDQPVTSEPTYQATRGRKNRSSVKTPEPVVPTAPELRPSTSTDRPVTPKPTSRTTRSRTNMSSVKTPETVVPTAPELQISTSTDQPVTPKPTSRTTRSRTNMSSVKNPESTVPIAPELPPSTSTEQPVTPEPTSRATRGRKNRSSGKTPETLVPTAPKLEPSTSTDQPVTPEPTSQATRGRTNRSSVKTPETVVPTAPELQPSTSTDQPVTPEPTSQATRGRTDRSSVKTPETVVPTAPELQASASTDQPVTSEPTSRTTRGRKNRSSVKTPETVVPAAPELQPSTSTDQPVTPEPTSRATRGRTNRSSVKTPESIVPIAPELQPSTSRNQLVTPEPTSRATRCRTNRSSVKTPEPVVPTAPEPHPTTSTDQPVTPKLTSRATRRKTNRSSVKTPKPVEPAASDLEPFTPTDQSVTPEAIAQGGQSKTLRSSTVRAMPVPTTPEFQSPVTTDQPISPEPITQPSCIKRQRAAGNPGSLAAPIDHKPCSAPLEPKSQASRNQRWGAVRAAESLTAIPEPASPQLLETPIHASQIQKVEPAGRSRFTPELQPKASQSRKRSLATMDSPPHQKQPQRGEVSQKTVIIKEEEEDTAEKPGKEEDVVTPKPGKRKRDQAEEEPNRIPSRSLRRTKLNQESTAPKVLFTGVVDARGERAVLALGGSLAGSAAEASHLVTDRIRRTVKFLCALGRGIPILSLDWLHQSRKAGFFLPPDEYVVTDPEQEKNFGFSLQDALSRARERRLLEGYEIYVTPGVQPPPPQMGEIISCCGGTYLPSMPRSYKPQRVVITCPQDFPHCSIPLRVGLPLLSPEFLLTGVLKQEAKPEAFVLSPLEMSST
UniProt O60934: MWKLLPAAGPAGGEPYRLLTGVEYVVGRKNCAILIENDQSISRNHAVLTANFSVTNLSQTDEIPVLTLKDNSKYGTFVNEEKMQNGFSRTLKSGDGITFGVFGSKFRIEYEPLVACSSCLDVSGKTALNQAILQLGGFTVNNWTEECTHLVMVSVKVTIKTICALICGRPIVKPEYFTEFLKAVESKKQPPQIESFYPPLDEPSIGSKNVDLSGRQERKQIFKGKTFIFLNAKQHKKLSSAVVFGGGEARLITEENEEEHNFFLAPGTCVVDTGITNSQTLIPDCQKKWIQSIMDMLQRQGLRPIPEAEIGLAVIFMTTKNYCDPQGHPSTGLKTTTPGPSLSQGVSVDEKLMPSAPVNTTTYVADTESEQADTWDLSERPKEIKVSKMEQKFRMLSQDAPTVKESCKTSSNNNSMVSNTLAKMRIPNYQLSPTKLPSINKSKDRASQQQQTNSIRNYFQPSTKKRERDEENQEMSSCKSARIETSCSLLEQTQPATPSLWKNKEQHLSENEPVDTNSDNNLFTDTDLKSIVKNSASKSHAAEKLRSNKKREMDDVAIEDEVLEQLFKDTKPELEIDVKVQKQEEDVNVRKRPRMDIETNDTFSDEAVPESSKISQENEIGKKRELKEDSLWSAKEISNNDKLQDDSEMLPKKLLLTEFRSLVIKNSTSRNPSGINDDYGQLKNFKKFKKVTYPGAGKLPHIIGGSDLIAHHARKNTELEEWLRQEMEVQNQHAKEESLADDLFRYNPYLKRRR

No constants are given. Whether binding was seen depends on the method and setting. Binding seen in cells or lysates may run through a third protein. Some results given as binding are weak or reduced against the parent protein; the word gives no strength. For some assays here: Where a sequence is shown, tags or fusion partners need not be part of it.

Assay [1] has as its target T1, endogenous MRE11 (human (endogenous in U-2-OS and DLD-1)) (UniProt P49959).
T1 sequence: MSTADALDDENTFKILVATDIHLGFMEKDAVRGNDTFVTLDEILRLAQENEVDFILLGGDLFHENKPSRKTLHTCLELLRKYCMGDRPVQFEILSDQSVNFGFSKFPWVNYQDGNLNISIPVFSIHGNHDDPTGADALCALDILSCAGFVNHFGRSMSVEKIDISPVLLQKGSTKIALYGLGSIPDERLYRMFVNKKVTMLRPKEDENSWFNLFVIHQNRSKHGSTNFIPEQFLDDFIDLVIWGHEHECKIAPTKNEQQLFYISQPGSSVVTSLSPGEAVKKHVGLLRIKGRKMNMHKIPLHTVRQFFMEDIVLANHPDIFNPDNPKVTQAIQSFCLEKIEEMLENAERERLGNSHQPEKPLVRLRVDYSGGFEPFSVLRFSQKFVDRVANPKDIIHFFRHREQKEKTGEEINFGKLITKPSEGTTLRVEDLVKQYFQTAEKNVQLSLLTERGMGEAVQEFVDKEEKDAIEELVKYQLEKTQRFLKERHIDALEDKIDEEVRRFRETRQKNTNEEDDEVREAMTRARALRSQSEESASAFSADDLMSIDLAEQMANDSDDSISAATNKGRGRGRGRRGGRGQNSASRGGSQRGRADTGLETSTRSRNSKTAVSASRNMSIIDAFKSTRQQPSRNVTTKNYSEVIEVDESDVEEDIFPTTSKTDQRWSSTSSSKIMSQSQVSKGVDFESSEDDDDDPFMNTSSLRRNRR
In words: co-IP; immunoprecipitation of MRE11; cells with or without irradiation, IAA-induced TRIP13 depletion or mirin.

A further assay addresses T2, 3xFLAG-TRIP13 (human) (UniProt Q15645).
T2 sequence: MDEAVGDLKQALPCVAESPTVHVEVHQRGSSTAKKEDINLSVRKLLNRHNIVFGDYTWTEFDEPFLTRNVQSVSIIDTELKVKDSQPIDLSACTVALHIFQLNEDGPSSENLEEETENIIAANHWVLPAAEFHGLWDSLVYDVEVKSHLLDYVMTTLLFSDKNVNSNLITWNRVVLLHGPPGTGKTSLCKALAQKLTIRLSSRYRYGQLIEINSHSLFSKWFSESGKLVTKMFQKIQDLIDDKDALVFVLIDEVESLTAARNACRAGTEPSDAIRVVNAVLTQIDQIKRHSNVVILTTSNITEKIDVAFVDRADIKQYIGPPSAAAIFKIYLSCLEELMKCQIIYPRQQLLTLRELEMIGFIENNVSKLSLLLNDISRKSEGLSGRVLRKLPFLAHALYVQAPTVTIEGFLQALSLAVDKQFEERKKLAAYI
In words: co-IP; FLAG immunoprecipitation from cells overexpressing 3xFLAG-TRIP13 and the Myc-MRE11 domain deletion series; buffer X (100 mM Tris-HCl, 250 mM NaCl, 1 mM EDTA, 1% NP-40) with Benzonase, 4 °C.

On to MDC1 (from UniProt Q14676 1-2089), for which, in assay [1], the binding result was “binds”.
For the substance NBS1 (from UniProt O60934 1-754), in the assay with 3xFLAG-TRIP13 (human), the binding entry is given as “no binding”.
